Assay results as given in publication PMC6429222, “The Oligomeric State of the Plasma Membrane H^+-ATPase from Kluyveromyces lactis” (Molecules, 2019).
These are yes or no findings as the source states them, for the method shown. Some binding calls cover weakened binding; strength is not graded here. Sequences can lack the tags named with a protein.

Key:
[1] = target: plasma membrane H^+-ATPase from Kluyveromyces lactis (Kluyveromyces lactis) (UniProt P49380); assay: SEC; Superose 6 column (12 mL), 9, 6 and 3 mg of purified H^+-ATPase loaded; 0.25 mL/min; 20 mM PIPES pH 6.5, 100 mM NaCl, 1 mM MgCl2, 0.05% DDM, 10% glycerol; both purified
[2] = target: plasma membrane H^+-ATPase from Kluyveromyces lactis (Kluyveromyces lactis) (UniProt P49380); assay: native gel or EMSA; BN-PAGE of SEC Peak 1 fractions with decreased trehalose concentration in the loading buffer; result not shown; both purified
[3] = target: plasma membrane H^+-ATPase from Kluyveromyces lactis (Kluyveromyces lactis) (UniProt P49380); assay: light scattering; purified enzyme suspended in aqueous media; results not shown; both purified

binding [1]: binds
binding [2]: binds
binding [3]: binds
B1: plasma membrane H^+-ATPase from Kluyveromyces lactis (enzyme, UniProt P49380 1-899, looked up)
chain: MSAATEPTKEKPVNNQDSDDEDEDIDQLIEDLQSHHGLDDESEDDEHVAAGSARPVPEELLQTDPSYGLTSDEVTKRRKKYGLNQMSEETENLFVKFLMFFIGPIQFVMEAAAILAAGLEDWVDFGVICGLLFLNAAVGFIQEYQAGSIVDELKKTLANSAVVIRDGNLVEVPSNEVVPGDILQLEDGVVIPADGRLVTEDCFIQIDQSAITGESLAVDKRFGDSTFSSSTVKRGEAFMIVTATGDSTFVGRAAALVNKAAAGSGHFTEVLNGIGTILLILVIVTLLLVWVASFYRTNKIVRILRYTLAITIVGVPVGLPAVVTTTMAVGAAYLAKKQAIVQKLSAIESLAGVEILCSDKTGTLTKNKLSLHEPYTVEGVDPDDLMLTACLAASRKKKGLDAIDKAFLKSLISYPRAKAALTKYKLLEFHPFDPVSKKVTAIVESPEGERIICVKGAPLFVLKTVEEEHPIPEDVRENYENKVAELASRGFRALGVARKRGEGHWEILGVMPCMDPPRDDTAQTVNEARHLGLRVKMLTGDAVGIAKETCRQLGLGTNIYNAERLGLGGGGDMPGSELADFVENADGFAEVFPQHKYNVVEILQQRGYLVAMTGDGVNDAPSLKKADTGIAVEGATDAARSAADIVFLAPGLSAIIDALKTSRQIFHRMYSYVVYRIALSLHLEIFLGLWIAILNRSLNIDLVVFIAIFADVATLAIAYDNAPYSPKPVKWNLRRLWGMSVILGIILAIGTWITLTTMFVPKGGIIQNFGSIDGVLFLQISLTENWLIFITRAAGPFWSSIPSWQLSGAVLIVDIIATMFCLFGWWSQNWNDIVTVVRVWIFSFGVFCVMGGAYYMMSESEAFDRFMNGKSRRDKPSGRSVEDFLMAMQRVSTQHEKEN
notes: plasma membrane H^+-ATPase (Pma1) of Kluyveromyces lactis, endogenous enzyme; monomer band of ~100 kDa on SDS-PAGE; also called Pma1; H^+-ATPase hexamer; source: also in isolated plasma membranes treated with DDM
